Data: doi:10.1101/2024.01.16.575949

Chains of the proteins cited; added tags and fusions are not shown.
UniProt Q92769: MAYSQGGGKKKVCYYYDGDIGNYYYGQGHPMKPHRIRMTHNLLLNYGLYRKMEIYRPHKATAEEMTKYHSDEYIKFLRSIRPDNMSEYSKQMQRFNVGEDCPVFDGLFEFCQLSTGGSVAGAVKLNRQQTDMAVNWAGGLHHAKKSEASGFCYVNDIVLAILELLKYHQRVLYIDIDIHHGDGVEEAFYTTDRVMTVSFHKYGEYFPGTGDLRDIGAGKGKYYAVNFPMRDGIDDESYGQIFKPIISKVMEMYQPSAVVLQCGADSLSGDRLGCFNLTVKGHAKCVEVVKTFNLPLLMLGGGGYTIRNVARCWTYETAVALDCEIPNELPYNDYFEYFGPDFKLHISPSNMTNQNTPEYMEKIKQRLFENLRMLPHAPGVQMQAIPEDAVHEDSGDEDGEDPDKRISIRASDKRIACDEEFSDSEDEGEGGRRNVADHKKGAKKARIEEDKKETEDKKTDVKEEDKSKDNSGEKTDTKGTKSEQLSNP
UniProt P06748: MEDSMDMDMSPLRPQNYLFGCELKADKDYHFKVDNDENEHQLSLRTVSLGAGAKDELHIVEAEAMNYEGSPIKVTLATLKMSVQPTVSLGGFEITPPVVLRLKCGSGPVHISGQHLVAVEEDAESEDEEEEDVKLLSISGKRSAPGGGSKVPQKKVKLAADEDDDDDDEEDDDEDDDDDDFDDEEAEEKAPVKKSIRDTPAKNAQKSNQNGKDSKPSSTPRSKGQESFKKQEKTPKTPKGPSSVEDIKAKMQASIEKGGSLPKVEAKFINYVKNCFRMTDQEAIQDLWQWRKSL
UniProt Q13547: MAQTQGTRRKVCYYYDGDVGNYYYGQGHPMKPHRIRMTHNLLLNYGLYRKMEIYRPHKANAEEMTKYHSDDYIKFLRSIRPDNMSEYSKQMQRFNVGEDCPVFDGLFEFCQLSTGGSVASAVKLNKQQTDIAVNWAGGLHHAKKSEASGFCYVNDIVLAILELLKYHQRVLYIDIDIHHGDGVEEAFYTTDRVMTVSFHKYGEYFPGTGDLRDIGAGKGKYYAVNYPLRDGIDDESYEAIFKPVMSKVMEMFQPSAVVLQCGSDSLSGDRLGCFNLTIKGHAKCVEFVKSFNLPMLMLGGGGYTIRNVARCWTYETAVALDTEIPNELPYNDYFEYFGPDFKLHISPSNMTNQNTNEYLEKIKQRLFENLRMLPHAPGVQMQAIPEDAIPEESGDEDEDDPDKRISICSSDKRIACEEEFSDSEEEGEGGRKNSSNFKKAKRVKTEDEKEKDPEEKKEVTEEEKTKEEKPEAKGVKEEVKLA

T1: Halo-FAM60A_Δ1 (UniProt Q9NP50)
T1 sequence: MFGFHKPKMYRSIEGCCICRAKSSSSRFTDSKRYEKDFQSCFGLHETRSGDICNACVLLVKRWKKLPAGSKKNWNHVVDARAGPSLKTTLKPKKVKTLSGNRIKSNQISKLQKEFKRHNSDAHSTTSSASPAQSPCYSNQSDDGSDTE

T2: Halo-FAM60A_Δ4 (UniProt Q9NP50)
T2 sequence: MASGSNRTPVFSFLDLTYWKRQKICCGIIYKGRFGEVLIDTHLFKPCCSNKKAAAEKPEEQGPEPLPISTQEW

T3: Halo-SIN3A (UniProt Q96ST3)
T3 sequence: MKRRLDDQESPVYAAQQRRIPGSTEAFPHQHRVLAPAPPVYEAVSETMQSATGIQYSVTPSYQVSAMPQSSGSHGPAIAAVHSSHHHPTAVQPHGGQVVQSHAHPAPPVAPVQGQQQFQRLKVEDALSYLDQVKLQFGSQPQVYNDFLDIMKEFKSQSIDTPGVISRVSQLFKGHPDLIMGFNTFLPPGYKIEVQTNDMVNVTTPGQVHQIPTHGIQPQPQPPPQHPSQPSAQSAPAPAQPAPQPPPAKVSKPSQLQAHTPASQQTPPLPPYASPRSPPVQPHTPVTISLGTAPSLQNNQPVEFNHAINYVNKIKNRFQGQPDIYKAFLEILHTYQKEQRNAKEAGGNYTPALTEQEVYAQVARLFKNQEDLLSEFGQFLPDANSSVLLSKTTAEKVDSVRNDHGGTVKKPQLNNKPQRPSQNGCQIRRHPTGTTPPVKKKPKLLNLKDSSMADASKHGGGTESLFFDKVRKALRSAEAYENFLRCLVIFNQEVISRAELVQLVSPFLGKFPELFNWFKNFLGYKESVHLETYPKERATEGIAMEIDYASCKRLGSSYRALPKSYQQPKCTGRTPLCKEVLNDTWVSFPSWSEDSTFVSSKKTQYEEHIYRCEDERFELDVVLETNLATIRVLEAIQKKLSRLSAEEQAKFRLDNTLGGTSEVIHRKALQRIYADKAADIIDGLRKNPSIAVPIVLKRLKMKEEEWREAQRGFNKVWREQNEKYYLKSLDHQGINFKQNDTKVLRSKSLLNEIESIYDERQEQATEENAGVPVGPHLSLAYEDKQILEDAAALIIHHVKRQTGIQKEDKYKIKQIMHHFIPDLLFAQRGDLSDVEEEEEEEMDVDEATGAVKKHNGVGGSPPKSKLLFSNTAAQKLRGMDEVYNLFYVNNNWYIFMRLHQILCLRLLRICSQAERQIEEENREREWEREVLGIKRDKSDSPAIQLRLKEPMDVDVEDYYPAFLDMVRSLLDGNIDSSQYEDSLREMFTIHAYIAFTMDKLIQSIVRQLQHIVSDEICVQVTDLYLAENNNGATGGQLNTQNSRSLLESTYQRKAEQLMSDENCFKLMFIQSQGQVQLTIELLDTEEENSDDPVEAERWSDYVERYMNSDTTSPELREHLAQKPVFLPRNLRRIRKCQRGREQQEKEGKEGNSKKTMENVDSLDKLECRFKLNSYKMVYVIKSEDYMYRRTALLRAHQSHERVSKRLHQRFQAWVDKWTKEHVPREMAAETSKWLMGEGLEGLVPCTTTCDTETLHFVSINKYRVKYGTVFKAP

T4: FAM60A-Halo (UniProt Q9NP50)
T4 sequence: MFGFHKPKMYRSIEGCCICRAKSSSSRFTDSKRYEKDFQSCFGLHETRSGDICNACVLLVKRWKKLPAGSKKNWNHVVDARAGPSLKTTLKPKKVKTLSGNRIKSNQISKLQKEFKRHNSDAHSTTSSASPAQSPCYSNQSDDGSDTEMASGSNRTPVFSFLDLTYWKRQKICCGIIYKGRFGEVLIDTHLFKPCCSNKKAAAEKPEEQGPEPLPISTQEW

T5: Halo-FAM60A (full length) (UniProt Q9NP50)
T5 sequence: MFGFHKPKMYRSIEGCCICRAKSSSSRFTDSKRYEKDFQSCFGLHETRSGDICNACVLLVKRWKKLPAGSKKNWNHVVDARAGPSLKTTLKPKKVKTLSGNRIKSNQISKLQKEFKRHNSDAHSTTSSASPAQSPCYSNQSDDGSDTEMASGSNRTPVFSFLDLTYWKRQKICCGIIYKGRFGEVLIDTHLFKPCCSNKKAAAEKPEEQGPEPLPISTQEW

B1: SUDS3 (endogenous) (protein, UniProt Q9H7L9 1-328)
chain: MSAAGLLAPAPAQAGAPPAPEYYPEEDEELESAEDDERSCRGRESDEDTEDASETDLAKHDEEDYVEMKEQMYQDKLASLKRQLQQLQEGTLQEYQKRMKKLDQQYKERIRNAELFLQLETEQVERNYIKEKKAAVKEFEDKKVELKENLIAELEEKKKMIENEKLTMELTGDSMEVKPIMTRKLRRRPNDPVPIPDKRRKPAPAQLNYLLTDEQIMEDLRTLNKLKSPKRPASPSSPEHLPATPAESPAQRFEARIEDGKLYYDKRWYHKSQAIYLESKDNQKLSCVISSVGANEIWVRKTSDSTKMRIYLGQLQRGLFVIRRRSAA
B2: SRSF4 (endogenous) (protein, UniProt Q08170 1-494)
chain: MPRVYIGRLSYQARERDVERFFKGYGKILEVDLKNGYGFVEFDDLRDADDAVYELNGKDLCGERVIVEHARGPRRDGSYGSGRSGYGYRRSGRDKYGPPTRTEYRLIVENLSSRCSWQDLKDYMRQAGEVTYADAHKGRKNEGVIEFVSYSDMKRALEKLDGTEVNGRKIRLVEDKPGSRRRRSYSRSRSHSRSRSRSRHSRKSRSRSGSSKSSHSKSRSRSRSGSRSRSKSRSRSQSRSRSKKEKSRSPSKEKSRSRSHSAGKSRSKSKDQAEEKIQNNDNVGKPKSRSPSRHKSKSKSRSRSQERRVEEEKRGSVSRGRSQEKSLRQSRSRSRSKGGSRSRSRSRSKSKDKRKGRKRSREESRSRSRSRSKSERSRKRGSKRDSKAGSSKKKKKEDTDRSQSRSPSRSVSKEREHAKSESSQREGRGESENAGTNQETRSRSRSNSKSKPNLPSESRSRSKSASKTRSRSKSRSRSASRSPSRSRSRSHSRS
B3: SRSF5 (endogenous) (protein, UniProt Q13243 1-272)
chain: MSGCRVFIGRLNPAAREKDVERFFKGYGRIRDIDLKRGFGFVEFEDPRDADDAVYELDGKELCSERVTIEHARARSRGGRGRGRYSDRFSSRRPRNDRRNAPPVRTENRLIVENLSSRVSWQDLKDFMRQAGEVTFADAHRPKLNEGVVEFASYGDLKNAIEKLSGKEINGRKIKLIEGSKRHSRSRSRSRSRTRSSSRSRSRSRSRSRKSYSRSRSRSRSRSRSKSRSVSRSPVPEKSQKRGSSSRSKSPASVDRQRSRSRSRSRSVDSGN
B4: SRSF6 (endogenous) (protein, UniProt Q13247 1-344)
chain: MPRVYIGRLSYNVREKDIQRFFSGYGRLLEVDLKNGYGFVEFEDSRDADDAVYELNGKELCGERVIVEHARGPRRDRDGYSYGSRSGGGGYSSRRTSGRDKYGPPVRTEYRLIVENLSSRCSWQDLKDFMRQAGEVTYADAHKERTNEGVIEFRSYSDMKRALDKLDGTEINGRNIRLIEDKPRTSHRRSYSGSRSRSRSRRRSRSRSRRSSRSRSRSISKSRSRSRSRSKGRSRSRSKGRKSRSKSKSKPKSDRGSHSHSRSRSKDEYEKSRSRSRSRSPKENGKGDIKSKSRSRSQSRSNSPLPVPPSKARSVSPPPKRATSRSRSRSRSKSRSRSRSSSRD
B5: SRSF7 (endogenous) (protein, UniProt Q16629 1-238)
chain: MSRYGRYGGETKVYVGNLGTGAGKGELERAFSYYGPLRTVWIARNPPGFAFVEFEDPRDAEDAVRGLDGKVICGSRVRVELSTGMPRRSRFDRPPARRPFDPNDRCYECGEKGHYAYDCHRYSRRRRSRSRSRSHSRSRGRRYSRSRSRSRGRRSRSASPRRSRSISLRRSRSASLRRSRSGSIKGSRYFQSPSRSRSRSRSISRPRSSRSKSRSPSPKRSRSPSGSPRRSASPERMD
B6: BRMS1 (endogenous) (protein, UniProt Q9HCU9 1-246)
chain: MPVQPPSKDTEEMEAEGDSAAEMNGEEEESEEERSGSQTESEEESSEMDDEDYERRRSECVSEMLDLEKQFSELKEKLFRERLSQLRLRLEEVGAERAPEYTEPLGGLQRSLKIRIQVAGIYKGFCLDVIRNKYECELQGAKQHLESEKLLLYDTLQGELQERIQRLEEDRQSLDLSSEWWDDKLHARGSSRSWDSLPPSKRKKAPLVSGPYIVYMLQEIDILEDWTAIKKARAAVSPQKRKSDGP

Columns and labels:
Assay in all cases: affinity purification with mass spectrometry
[1] = target: T1, Halo-FAM60A_Δ1
[2] = target: T2, Halo-FAM60A_Δ4
[3] = target: T3, Halo-SIN3A
[4] = target: T4, FAM60A-Halo
[5] = target: T5, Halo-FAM60A (full length)
[6] = target: Halo-SIN3A_Δ5
[7] = target: Halo-SIN3A_Δ8
[8] = target: Halo-SIN3A_Δ7_968-1186
[9] = target: Halo-SIN3A_Δ6

Molecule | binding [1] | binding [3] | binding [5] | other results
HDAC2 (endogenous) (from UniProt Q92769 1-488) (enzyme) | binds | binds |  | binding [2]: binds
NPM1 (endogenous) (from UniProt P06748 1-294) | binds |  | binds | binding [4]: binds
HDAC1 (endogenous) (from UniProt Q13547 1-482) (enzyme) | binds | binds |  | binding [2]: binds
B1 |  | binds |  | binding [6]: no binding
B2 |  |  | binds | 
B3 |  |  | binds | 
B4 |  |  | binds | 
B5 |  |  | binds | 
B6 |  | binds |  | binding [7]: no binding; binding [8]: no binding; binding [9]: no binding

Results are given in words; binding and its absence hold for the method and conditions named. In cells and extracts the contact can be indirect. Here binding means that the protein was enriched with, or labelled near, the bait; the list need not be complete. For some of these results: A no says only that the protein was not detected with the bait.
